Laboratory results: PubChem BioAssay AID1159584 (Peter MacCallum Cancer Centre, 2016)

- Assay: 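Knock-downs that harm CDH1-null cells more than parental MCF10A cells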 (primary screen)
- Cell system: human MCF10A breast epithelial cells, parental and CDH1-null
- Reagents: siRNA against human genes
- Detection: 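ATP luminescence (CellTiter-Glo) viability per line relative to mean mock wells over all plates, and the ratio of CDH1-null to parental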
- Scale: CDH1-null / parental viability ratio: higher = CDH1-null cells survive relatively better than parental
Here is an unselected part of about 18,000 reagents tested. Further read-outs or replicates are left out here. Not given: the amount of reagent, the time to read-out.

Gene	CDH1-null / parental viability ratio
POLH	0.75
SLC34A2	1.1
DLD	0.86
GIGYF2	0.76
CACNB4	1.19
HCAR3	1.39
LINC01599	1.36
LRP2BP	1.58
ZNF143	1.23
SCML4	1.12
SEPHS1	0.69
KIFC2	0.76
GABRA4	1
CSPG5	1.1
RAN	1.71
GRHL1	1.11
GUCY2C	0.95
FTSJ3	1.06
CYP4A22	1.06
FLT3	1.16
ADPGK	0.96
ZC3H6	0.79
BFAR	0.81
WIPF3	1.01
DENND10P1	0.87
AGAP2	1.16
ING5	1.24
ADCY2	0.94
CLEC1A	0.89
UTP25	0.87
FGFBP3	0.88
ZNF229	1.67
GAPDH	0.88
OSGEP	1.12
FAM24A	1.49
CHCHD6	1.2
NPY4R	0.63
LMX1B	1.05
CD177	1.15
SPMIP8	1.13
ACR	1.21
PUS10	1.08
TMEM100	0.82
SLC12A7	1.08
GADD45B	1.04
HMGB1	0.97
PCDHB3	1.22
CASP1	1
MAGEE2	1.04
SDHAF1	1.45
RPTOR	0.79
PSG1	1.08
NFKBIE	0.9
MMP14	1.01
GPR183	0.83
RTN4R	1.18
FZD4	0.88
RFWD3	0.73
MRPL2	0.71
TAPBP	1.03
MAJIN	0.78
CERCAM	0.86
TRPV3	1.63
ATPAF1	1.13
LENEP	1.24
QRFPR	0.84
DEFB104B	1.58
DNAJC8	1.02
HSD17B12	1.05
ZNF668	0.82
STK32C	0.96
DYNC1H1	1.01
PTGES3	0.98
ITGA8	0.96
PCLAF	0.7
PHLDB2	0.67
PBOV1	0.88
LY75	0.83
SPMIP4	1.38
RBM7	1.6
GFRA4	0.95
FAAP100	0.99
DAZ3	1.07
OLFML2A	0.88
DIS3L	0.88
ASZ1	0.75
RPL18P4	1.58

As entered above:
Under “CDH1-null / parental viability ratio”, ASZ1 has 0.75
Result of LINC01599 under “CDH1-null / parental viability ratio”: 1.36
Entry for GUCY2C in “CDH1-null / parental viability ratio”: 0.95
Entry of CASP1 in “CDH1-null / parental viability ratio”: 1
Entry of CSPG5 under “CDH1-null / parental viability ratio”: 1.1
For “CDH1-null / parental viability ratio”, LRP2BP reads 1.58
